Reference: US20190322728A1 (PROTHENA BIOSCIENCES, published 2019)
Results are given in words; binding and its absence hold for the method and conditions named. Some binding calls cover weakened binding; strength is not graded here.

Amino acid sequences for entries named in this document (tags omitted). A change or cut given only in a name is not applied to a line headed by its entry. Chains listed by the source or under a name are the forms on record and can include a tag or linker.
UniProt P10636: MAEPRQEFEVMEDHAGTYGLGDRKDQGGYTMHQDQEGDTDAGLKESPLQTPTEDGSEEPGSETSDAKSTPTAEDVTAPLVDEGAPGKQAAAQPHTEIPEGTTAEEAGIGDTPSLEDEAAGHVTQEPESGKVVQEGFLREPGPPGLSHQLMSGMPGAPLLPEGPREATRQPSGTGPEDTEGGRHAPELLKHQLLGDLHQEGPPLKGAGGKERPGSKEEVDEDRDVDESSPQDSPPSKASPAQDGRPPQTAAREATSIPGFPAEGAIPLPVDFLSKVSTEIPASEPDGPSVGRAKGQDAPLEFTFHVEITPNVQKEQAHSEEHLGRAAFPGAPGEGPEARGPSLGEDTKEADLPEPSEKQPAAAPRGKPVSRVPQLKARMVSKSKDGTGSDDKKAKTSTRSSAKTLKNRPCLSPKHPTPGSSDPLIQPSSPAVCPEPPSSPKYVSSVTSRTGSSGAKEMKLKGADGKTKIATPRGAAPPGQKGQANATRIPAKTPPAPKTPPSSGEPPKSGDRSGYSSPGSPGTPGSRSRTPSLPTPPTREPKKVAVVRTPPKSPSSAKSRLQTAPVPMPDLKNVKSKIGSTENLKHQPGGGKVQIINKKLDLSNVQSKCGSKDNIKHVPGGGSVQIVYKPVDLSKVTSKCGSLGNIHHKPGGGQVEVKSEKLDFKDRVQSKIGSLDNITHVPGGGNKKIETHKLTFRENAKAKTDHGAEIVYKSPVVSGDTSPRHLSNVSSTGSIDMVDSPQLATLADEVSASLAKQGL
tau in human Alzheimer's disease brain (frontal cortex extracts and tissue sections) (P10636, form named): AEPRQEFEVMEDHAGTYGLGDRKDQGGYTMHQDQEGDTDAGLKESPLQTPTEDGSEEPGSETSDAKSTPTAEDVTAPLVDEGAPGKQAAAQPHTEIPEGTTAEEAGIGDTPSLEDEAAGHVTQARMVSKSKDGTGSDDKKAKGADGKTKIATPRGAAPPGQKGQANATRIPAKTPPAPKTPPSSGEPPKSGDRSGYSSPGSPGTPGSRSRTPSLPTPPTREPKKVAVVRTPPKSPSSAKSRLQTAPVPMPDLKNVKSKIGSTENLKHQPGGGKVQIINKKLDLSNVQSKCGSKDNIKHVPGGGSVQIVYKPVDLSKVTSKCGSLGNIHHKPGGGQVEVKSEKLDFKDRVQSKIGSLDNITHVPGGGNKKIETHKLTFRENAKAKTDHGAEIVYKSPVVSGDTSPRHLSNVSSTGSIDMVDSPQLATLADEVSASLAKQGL

What was measured:
[1] = target: tau in human Alzheimer's disease brain (frontal cortex extracts and tissue sections) (human) (UniProt P10636); assay: immunohistochemistry on Alzheimer's disease tissue, antibody at 1 ug/mL (column Stain AD Tissue)
[2] = target: tau in human Alzheimer's disease brain (frontal cortex extracts and tissue sections) (human) (UniProt P10636); assay: double immunofluorescent labeling on Alzheimer's disease brain sections
[3] = target: tau in human Alzheimer's disease brain (frontal cortex extracts and tissue sections) (human) (UniProt P10636); assay: immunohistochemistry on Alzheimer's disease brain cryosections
[4] = target: tau in human Alzheimer's disease brain (frontal cortex extracts and tissue sections) (human) (UniProt P10636); assay: immunoprecipitation from Alzheimer's disease frontal cortex fractions, blot with polyclonal tau antibody
purified tau (Example 1) = purified tau (Example 1) (UniProt P10636); assay: capture ELISA
[5] = target: tau in human Alzheimer's disease brain (frontal cortex extracts and tissue sections) (human) (UniProt P10636); assay: immunoprecipitation from Alzheimer's disease frontal cortex fractions with protein G beads, blot with polyclonal tau antibody
[6] = target: tau deletion mutant Δ37-46 (printed A37-46) (human) (UniProt P10636); assay: Western blot of bacterial lysate, antibody at 0.2 µg/mL
[7] = target: tau in human Alzheimer's disease brain (frontal cortex extracts and tissue sections) (human) (UniProt P10636); assay: immunohistochemistry on Alzheimer's disease brain sections

Measured: binding

B1: humanized 16B5, version H1L2 (antibody, V domains shown)
VH: QVQLVQSGSELKKPGASVKVSCKASGYPFTYHGMDWVRQAPGQGLEWMGWINTYSGVPTYADDFKGRFVFSLDTSVSTAYLQISSLKAEDTAVYFCARRRDFTMDFWGQGTTVTVSS
VL: NIVLTQSPDSLAVSLGERATINCKSSQSLLNSRTRKNYLAWFQQKPGQSPKLLIYWASTRESGVPDRFSGSGSGTDFTLTISSLQAEDVAVYYCKQSYTLRTFGGGTKVEIKR
binds: [1] | [2] | [3] | [4]

B2: humanized 16B5, version H1L3 (antibody, V domains shown)
VH: QVQLVQSGSELKKPGASVKVSCKASGYPFTYHGMDWVRQAPGQGLEWMGWINTYSGVPTYADDFKGRFVFSLDTSVSTAYLQISSLKAEDTAVYFCARRRDFTMDFWGQGTTVTVSS
VL: DIVLTQSPDSLAVSLGERATINCKSSQSLLNSRTRKNYLAWFQQKPGQSPKLLIYWASTRESGVPDRFSGSGSGTDFTLTISSLQAEDVAVYYCKQSYTLRTFGGGTKVEIKR
binds: [4]

B3: 16B5 monoclonal antibody (mouse) (antibody, V domains shown)
VH: QIQLVQSGPELKKPGETVKISCKASGYPFTYHGMDWVKQAPWGGLEWMGWINTYSGVPTYADDFKGRFAFSLETSVGTAYLQINNLKNEDTATYFCARRRDFTMDFWGQGTSVTVSS
VL: NIVLSQSPSSLAVSPGEKVTMSCKSSQSLLNSRTRKNYLAWFQQKPGQSPKLLIYWASTRESGVPDRFTGSGSGTDFTLTISSVQAEDLAVYYCKQSYTLRTFGGGTNLEIKR
notes: Mouse monoclonal antibody; The control 6F10 is called an IgG1 isotype control; also called Murine 16B5; pan antibody 16B5
not listed: [2] | [4]
binds: all other assays above

B4: chimeric 16B5 antibody (antibody, V domains shown)
VH: QIQLVQSGPELKKPGETVKISCKASGYPFTYHGMDWVKQAPWGGLEWMGWINTYSGVPTYADDFKGRFAFSLETSVGTAYLQINNLKNEDTATYFCARRRDFTMDFWGQGTSVTVSS
VL: NIVLSQSPSSLAVSPGEKVTMSCKSSQSLLNSRTRKNYLAWFQQKPGQSPKLLIYWASTRESGVPDRFTGSGSGTDFTLTISSVQAEDLAVYYCKQSYTLRTFGGGTNLEIKR
binds: [1] | [4]
